Measured values from publication PMC7693245.
Results are given in words; binding and its absence hold for the method and conditions named. Binding seen in cells or lysates may run through a third protein. Some binding calls cover weakened binding; strength is not graded here. For some assays here: Where a sequence is shown, tags or fusion partners need not be part of it.

By UniProt entry, the sequences of proteins in these tests, tags left out.
UniProt P35222: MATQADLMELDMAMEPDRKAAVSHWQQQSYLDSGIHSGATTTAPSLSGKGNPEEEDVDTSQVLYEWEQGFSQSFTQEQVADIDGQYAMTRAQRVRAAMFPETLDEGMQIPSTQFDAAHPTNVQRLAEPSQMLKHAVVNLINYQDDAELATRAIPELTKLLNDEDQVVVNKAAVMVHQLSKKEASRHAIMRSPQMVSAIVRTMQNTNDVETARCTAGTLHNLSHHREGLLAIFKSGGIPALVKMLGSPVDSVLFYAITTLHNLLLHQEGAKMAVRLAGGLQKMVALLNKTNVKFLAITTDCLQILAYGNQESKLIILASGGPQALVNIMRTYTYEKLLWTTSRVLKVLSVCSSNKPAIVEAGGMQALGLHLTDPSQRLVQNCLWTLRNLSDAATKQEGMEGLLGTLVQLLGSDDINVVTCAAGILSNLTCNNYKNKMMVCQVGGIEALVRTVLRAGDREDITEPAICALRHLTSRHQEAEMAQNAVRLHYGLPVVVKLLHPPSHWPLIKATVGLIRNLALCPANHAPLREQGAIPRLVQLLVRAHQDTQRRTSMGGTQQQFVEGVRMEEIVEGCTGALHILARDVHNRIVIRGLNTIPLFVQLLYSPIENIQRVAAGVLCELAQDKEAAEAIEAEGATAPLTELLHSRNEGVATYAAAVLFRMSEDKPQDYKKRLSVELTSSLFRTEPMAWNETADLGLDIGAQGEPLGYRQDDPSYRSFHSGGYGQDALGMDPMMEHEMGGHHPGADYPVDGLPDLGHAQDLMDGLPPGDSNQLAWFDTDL

B1: Forkhead box M1 (FOXM1) (protein, UniProt Q08050 1-763)
chain: MKTSPRRPLILKRRRLPLPVQNAPSETSEEEPKRSPAQQESNQAEASKEVAESNSCKFPAGIKIINHPTMPNTQVVAIPNNANIHSIITALTAKGKESGSSGPNKFILISCGGAPTQPPGLRPQTQTSYDAKRTEVTLETLGPKPAARDVNLPRPPGALCEQKRETCADGEAAGCTINNSLSNIQWLRKMSSDGLGSRSIKQEMEEKENCHLEQRQVKVEEPSRPSASWQNSVSERPPYSYMAMIQFAINSTERKRMTLKDIYTWIEDHFPYFKHIAKPGWKNSIRHNLSLHDMFVRETSANGKVSFWTIHPSANRYLTLDQVFKPLDPGSPQLPEHLESQQKRPNPELRRNMTIKTELPLGARRKMKPLLPRVSSYLVPIQFPVNQSLVLQPSVKVPLPLAASLMSSELARHSKRVRIAPKVLLAEEGIAPLSSAGPGKEEKLLFGEGFSPLLPVQTIKEEEIQPGEEMPHLARPIKVESPPLEEWPSPAPSFKEESSHSWEDSSQSPTPRPKKSYSGLRSPTRCVSEMLVIQHRERRERSRSRRKQHLLPPCVDEPELLFSEGPSTSRWAAELPFPADSSDPASQLSYSQEVGGPFKTPIKETLPISSTPSKSVLPRTPESWRLTPPAKVGGLDFSPVQTSQGASDPLPDPLGLMDLSTTPLQSAPPLESPQRLLSSEPLDLISVPFGNSSPSDIDVPKPGSPEPQVSGLAANRSLTEGLVLDTMNDSLSKILLDISFPGLDEDPLGPDNINWSQFIPELQ

Legend:
[1] = target: T1, FOXM1 of the co-immunoprecipitation with β-catenin (Figure S3) (UniProt Q08050); experiment: co-IP; co-immunoprecipitation of FOXM1 and β-catenin in A549 and H1299 cells (Figure S3); bait and antibodies not told
T1 sequence: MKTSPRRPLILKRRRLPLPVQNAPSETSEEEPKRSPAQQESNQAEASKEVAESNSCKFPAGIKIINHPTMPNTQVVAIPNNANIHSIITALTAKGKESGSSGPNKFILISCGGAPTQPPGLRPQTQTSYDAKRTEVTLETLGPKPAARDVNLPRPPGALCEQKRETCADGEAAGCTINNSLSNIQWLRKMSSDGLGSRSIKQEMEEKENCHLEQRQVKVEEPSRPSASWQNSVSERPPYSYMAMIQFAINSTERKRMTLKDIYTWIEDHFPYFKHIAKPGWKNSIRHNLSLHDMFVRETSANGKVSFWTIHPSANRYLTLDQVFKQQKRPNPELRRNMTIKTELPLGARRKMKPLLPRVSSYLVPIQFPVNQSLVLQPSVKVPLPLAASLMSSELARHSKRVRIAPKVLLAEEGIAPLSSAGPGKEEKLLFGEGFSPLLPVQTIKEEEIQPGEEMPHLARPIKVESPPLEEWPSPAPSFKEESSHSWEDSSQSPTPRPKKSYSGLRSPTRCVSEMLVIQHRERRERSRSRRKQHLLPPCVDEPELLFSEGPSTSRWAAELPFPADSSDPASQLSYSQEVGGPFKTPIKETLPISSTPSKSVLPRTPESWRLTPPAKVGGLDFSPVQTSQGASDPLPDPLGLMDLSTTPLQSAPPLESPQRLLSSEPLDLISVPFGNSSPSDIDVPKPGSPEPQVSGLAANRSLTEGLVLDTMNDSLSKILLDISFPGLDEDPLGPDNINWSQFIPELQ

[2] = target: T2, FLAG-tagged family with sequence similarity 188 member B (FAM188B) (UniProt Q4G0A6); experiment: co-IP; cells transfected with FLAG-tagged FAM188B; lysed in M-PER buffer with protease inhibitor; 500 ug lysate with anti-FLAG-M2 agarose beads, 4 °C, 16 h; FOXM1 detected by immunoblot; A549, H1299 and PC9 cells
T2 sequence: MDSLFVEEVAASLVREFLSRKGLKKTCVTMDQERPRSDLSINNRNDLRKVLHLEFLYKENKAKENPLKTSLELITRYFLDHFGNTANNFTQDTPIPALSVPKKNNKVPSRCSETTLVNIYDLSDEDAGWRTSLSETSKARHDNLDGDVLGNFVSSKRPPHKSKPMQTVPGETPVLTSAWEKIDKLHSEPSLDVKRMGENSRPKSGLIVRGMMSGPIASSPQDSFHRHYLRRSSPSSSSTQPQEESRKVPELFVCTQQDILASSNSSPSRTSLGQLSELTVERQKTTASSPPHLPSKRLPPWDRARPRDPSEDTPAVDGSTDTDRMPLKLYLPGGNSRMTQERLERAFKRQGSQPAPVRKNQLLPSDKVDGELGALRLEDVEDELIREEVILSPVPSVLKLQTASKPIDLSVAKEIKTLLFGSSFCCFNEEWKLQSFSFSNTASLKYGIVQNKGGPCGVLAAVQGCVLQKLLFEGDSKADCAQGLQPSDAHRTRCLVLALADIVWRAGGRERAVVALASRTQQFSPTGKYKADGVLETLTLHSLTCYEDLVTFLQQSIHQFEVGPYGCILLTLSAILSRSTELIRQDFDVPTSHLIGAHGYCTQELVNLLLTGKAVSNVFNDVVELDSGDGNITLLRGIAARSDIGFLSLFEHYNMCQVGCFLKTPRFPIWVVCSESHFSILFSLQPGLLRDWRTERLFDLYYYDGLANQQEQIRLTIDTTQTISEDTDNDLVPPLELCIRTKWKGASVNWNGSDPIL

| binding [1] | binding [2] | Molecule |
| --- | --- | --- |
| binds |  | β-catenin (from UniProt P35222 1-781) |
|  | binds | B1 |
